This is one part of the list. Cut-off read from the data, not from the text of the source: active = 150% or more and inactive = the rest. Most values come without repeats; read them as rough.
These molecules were tested on Staphylococcus aureus JE2-lux inside RAW 264.7 macrophages (assay: intracellular bacterial bioluminescence relative to DMSO vehicle; higher = higher intracellular bacterial metabolic activity). Settings: 10 µM; treatment time 4 h; gentamicin 50 µg/ml.

Intracellular bacterial bioluminescence, inactive:
CCc1cc(-c2csc(S(=O)(=O)NCc3ccccc3Cl)c2)on1 66.9%
Cc1ccc2nc(Nc3cccc(O)c3)nc(-c3ccccc3)c2c1 99%
CCOC(=O)Cn1c(=O)c2c(nc3n2CCCN3c2ccccc2OC)n(C)c1=O 80.9%
CCOC(=O)C1=C(C)N=c2s/c(=C/c3cccnc3)c(=O)n2C1c1cccs1 (configuration not stated) 91.3%
CCOC(=O)c1[nH]c2ccccc2c1NC(=S)Nc1ccc(OC)cc1 61.7%
CCCC(=O)Nc1nc(-c2ccc(Cl)cc2)cc(-c2ccc(OC)cc2)n1 116%
CN1C(=O)c2ccc(NC(=O)CCc3nc(CSc4nc5ccccc5s4)no3)cc2C1=O 57.1%
COc1ccc(NC(=O)c2ncoc2-c2ccccc2C(F)(F)F)c(OC)n1 108%
Cc1nc2cc(NC(=O)c3ccc(S(=O)(=O)N(C)Cc4ccccc4)cc3)ccc2s1 107%
COc1ccc2c(O)c(C(=O)NCC3CCCO3)cnc2c1 (configuration not stated) 115%
CCOC(=O)c1cc(NC(=O)CSc2nc(C)nc3sc4c(c23)CCC4)cc(C(=O)OCC)c1 58%
CCOC(=O)c1ccc(NC(=O)CSc2nc3c(c(=O)n2-c2ccc(C)cc2)SCC3)cc1 49.1%
CCN(CC)C(=O)Cn1cc(S(=O)(=O)CC(=O)Nc2ccc(C(N)=O)cc2)c2ccccc21 120%
COc1ccc(/C=c2\sc3nc(-c4ccncc4)nn3c2=O)cc1OC 86%
COc1cccc(CNc2ncnc3oc4c(c23)CCCC4)c1 78.5%
COc1ccc(NC(=O)c2nnc(C3CCN(C(=O)Nc4ccc(C)c(Cl)c4)CC3)s2)cc1 69.5%
CCc1cc2cc(C)ccc2nc1SCC(=O)Nc1c(C)[nH]c(=O)[nH]c1=O 109%
Cc1ccc(-c2nnc3ccccc3c2C(=O)N(C)Cc2ccccc2)cc1 65.6%
CC1CC(C)CN(C(=O)c2ccc3c(=O)n(CCC4=CCCCC4)c(=S)[nH]c3c2)C1 (configuration not stated) 35.4%
CCN(CC)C(=O)Cn1nc2c3ccccc3nc(C(C)(C)C)n2c1=O 92.6%
Cn1c(=O)n(CC(N)=O)c(=O)c2c1nc(Br)n2Cc1ccccc1 116%
O=C(NCCc1csc2nc(-c3ccc(F)cc3)nn12)C(=O)Nc1ccc(Cl)cc1 83.9%
O=C(Nc1ccc2c(c1)N(C(=O)C1CC1)CCC2)c1ccc([N+](=O)[O-])cc1 66.4%
COc1ccc(NS(=O)(=O)c2cc3c4c(c2)CCN4C(=O)CC3)cc1Cl 131%
CN(C)/C=N/c1c(C#N)cnn1-c1ccc(Cl)nn1 107%
CCCN1CCN(c2ncnc3sc(C(=O)Nc4cc(OC)cc(OC)c4)c(C)c23)CC1 108%
Nc1c(C(=O)Nc2ccccc2)sc2nc(-c3cccnc3)ccc12 97.9%
O=c1[nH]c(-c2cccc(O)c2)nc2c1Cc1c(ccc3ccccc13)O2 106%
CCCNC(=O)N1CCC(n2c(C)nc3cccnc32)CC1 94.2%
Cc1ccc(CN2CCCn3nc(C(=O)NC(C)C)cc3C2=O)cc1 116%
COc1ccc(C(NC(=O)c2ccc3nc(C)sc3c2)c2ccncc2)cc1 (configuration not stated) 95.1%
COc1ccc(Nc2c3c(c(C#N)c4nc5ccccc5n24)CCCC3)cc1 78.7%
O=C(CN1C(=O)COc2ccccc21)NNC(=O)NC1CCCCC1 97.9%
CC(C)[C@H](Cn1nc(C2CC2)ccc1=O)NC(=O)Cn1nnc2ccccc21 115%
CCc1nnc2ccc(C(=O)NCCN3CCCC3)cn12 85.2%
COc1ccc2sc(Nc3ccccc3C#N)nc2c1 93%
COc1cc(NC(=O)C2CCN(c3cnccn3)CC2)cc(OC)c1 67.8%
Cn1nc(C(=O)N2CCCC2)c2c1CCN(S(=O)(=O)c1cccc3cccnc13)C2 22.4%
CC(=O)Oc1ccc(/C=C(\C#N)c2nc(-c3ccc(Cl)cc3)cs2)cc1 135%
CC(NC(=O)c1ncoc1-c1ccc2ccccc2c1)c1ccccn1 (configuration not stated) 79.8%
Cc1ccc(S(=O)(=O)N2CCCc3ccc(NC(=O)C(=O)Nc4ccc(F)cc4)cc32)cc1 99.1%
O=C(Nc1ccc(C(O)CN2CCC(O)(c3ccccc3F)CC2)cc1)C1CC1 (configuration not stated) 127%
Cc1ccc([N+](=O)[O-])cc1NC(=O)CCN1C(=O)c2ccccc2S1(=O)=O 18.3%
COc1ccc(NC(=O)CSc2nc3ccccc3cc2C)c(OC)c1 81.1%
O=C(Nc1ccc(Oc2cccnc2)cc1)c1[nH]nc2c1CCCCC2 13.7%
Cc1nn2c(C)c(C(=O)N3CCN(C4CCCCC4)CC3)cnc2c1-c1ccccc1 112%
COc1cccc(-c2nc3n(n2)C(c2ccccc2F)C(C(N)=O)=C(C)N3)c1 (configuration not stated) 135%
O=c1[nH]c(CSc2nc3ccccc3[nH]2)nc2ccccc12 79.1%
CCOc1cccc2sc(N(Cc3cccnc3)C(=O)Cc3ccc(F)cc3)nc12 36.3%
CCc1ccc(Nc2nc(C)c3nc(C(F)(F)F)n(-c4ccc(CC)cc4)c3n2)cc1 73.5%
CCOC(=O)c1sc(N/N=C2/C(=N)N(c3ccccc3)N=C2C)c(C(=O)OCC)c1C 61.2%
CCOc1ccc(NC(=O)N2CCC(c3nc4cc(C)ccc4[nH]3)CC2)cc1 113%
COc1ccc2cc(C#N)c(SCC(=O)Nc3nonc3C)nc2c1 107%
COc1ccc(CCNc2cc(C)c(C#N)c3nc4ccccc4n23)cc1OC 112%
C=CCOc1ccccc1NC(=O)c1cccc(-n2nc(C)c(Cl)c2C)c1 92.5%
O=C(NNc1nc2cc3c(cc2s1)OCO3)c1cccc(F)c1 80.5%
Cc1ccc2nc(NC(=O)CSc3c(C)cnc4c3c(=O)n(C)c(=O)n4C)sc2c1 91.8%

Already shown: 3 of the compounds above.
Intracellular bacterial bioluminescence, inactive:
COc1ccc(CCNc2cc(C)c(C#N)c3nc4ccccc4n23)cc1OC 112%
C=CCOc1ccccc1NC(=O)c1cccc(-n2nc(C)c(Cl)c2C)c1 92.5%
O=C(NNc1nc2cc3c(cc2s1)OCO3)c1cccc(F)c1 80.5%

Source: the supplement of paper PMC12578635
